Measurements reported in the supplement of paper PMC8728848.
Some of the results follow.

What was measured:
Assay in all cases: glycan array binding signal (z-score within array); higher = stronger binding
Conditions in all cases: glycan notation: IUPAC condensed, linker removed
[1] = target: Neu5Ac(a2-6)Gal(b1-4)GlcNAc(b1-2)Man(a1-3)[Man(a1-6)]Man(b1-4)GlcNAc(b1-4)GlcNAc
Summary of the method: (§1)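 Glycan array data were curated from 3228 arrays in the Consortium for Functional Glycomics database and kept only where the protein sequence was available. Glycan names were converted to IUPAC-condensed notation, and columns mapping to the same glycan were averaged. The binding signal is a within-array Z-score, averaged across arrays of the same protein sequence at different concentrations or buffers and across linkers. Negative Z-scores can be read as non-binding.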

[2] = target: Neu5Ac(a2-6)Gal(b1-4)GlcNAc(b1-2)Man(a1-3)[Neu5Ac(a2-6)Gal(b1-4)GlcNAc(b1-2)Man(a1-6)]Man(b1-4)GlcNAc(b1-4)GlcNAc
Summary of the method: as §1

[3] = target: Neu5Ac(a2-6)Gal(b1-4)GlcNAc(b1-2)Man(a1-3)[Neu5Ac(a2-6)Gal(b1-4)GlcNAc(b1-2)Man(a1-6)]Man(b1-4)GlcNAc(b1-4)[Fuc(a1-6)]GlcNAc
Summary of the method: as §1

[4] = target: Neu5Ac(a2-6)Gal(b1-4)GlcNAc(b1-2)Man(a1-6)Man(b1-4)GlcNAc(b1-4)GlcNAc
Summary of the method: as §1

[5] = target: Neu5Ac(a2-6)Gal(b1-4)GlcNAc(b1-2)Man(a1-6)[Gal(b1-4)GlcNAc(b1-2)Man(a1-3)]Man(b1-4)GlcNAc(b1-4)GlcNAc
Summary of the method: as §1

[6] = target: Neu5Ac(a2-6)Gal(b1-4)GlcNAc(b1-2)Man(a1-6)[GlcNAc(b1-2)Man(a1-3)]Man(b1-4)GlcNAc(b1-4)GlcNAc
Summary of the method: as §1

[7] = target: Neu5Ac(a2-6)Gal(b1-4)GlcNAc(b1-2)Man(a1-6)[Man(a1-3)]Man(b1-4)GlcNAc(b1-4)GlcNAc
Summary of the method: as §1

[8] = target: Neu5Ac(a2-6)Gal(b1-4)GlcNAc(b1-3)Gal(b1-3)GlcNAc
Summary of the method: as §1

[9] = target: Neu5Ac(a2-6)Gal(b1-4)GlcNAc(b1-3)Gal(b1-4)GlcNAc
Summary of the method: as §1

[10] = target: Neu5Ac(a2-6)Gal(b1-4)GlcNAc(b1-3)Gal(b1-4)GlcNAc(b1-3)Gal(b1-4)GlcNAc
Summary of the method: as §1

[11] = target: Neu5Ac(a2-6)Gal(b1-4)GlcNAc(b1-3)Gal(b1-4)[Fuc(a1-3)]GlcNAc(b1-3)Gal(b1-4)[Fuc(a1-3)]GlcNAc
Summary of the method: as §1

[12] = target: Neu5Ac(a2-6)Gal(b1-4)GlcNAc(b1-3)GalNAc
Summary of the method: as §1

[13] = target: Neu5Ac(a2-6)Gal(b1-4)GlcNAc(b1-3)[Neu5Ac(a2-6)Gal(b1-4)GlcNAc(b1-6)]GalNAc
Summary of the method: as §1

[14] = target: Neu5Ac(a2-6)Gal(b1-4)GlcNAc(b1-6)GalNAc
Summary of the method: as §1

[15] = target: Neu5Ac(a2-6)Gal(b1-4)GlcNAc(b1-6)[Gal(b1-3)GlcNAc(b1-3)]Gal(b1-4)Glc
Summary of the method: as §1

[16] = target: Neu5Ac(a2-6)Gal(b1-4)GlcNAc6S
Summary of the method: as §1

Neu5Ac(a2-6)GalNAc = target: Neu5Ac(a2-6)GalNAc
Summary of the method: as §1

[17] = target: Neu5Ac(a2-6)GalNAc(b1-4)GlcNAc
Summary of the method: as §1

[18] = target: Neu5Ac(a2-6)GalNAc(b1-4)GlcNAc6S
Summary of the method: as §1

[19] = target: Neu5Ac(a2-6)GlcNAc(b1-4)GlcNAc
Summary of the method: as §1

[20] = target: Neu5Ac(a2-6)GlcNAc(b1-4)GlcNAc(b1-4)GlcNAc
Summary of the method: as §1

Neu5Ac(a2-8)Neu5Ac = target: Neu5Ac(a2-8)Neu5Ac
Summary of the method: as §1

[21] = target: Neu5Ac(a2-8)Neu5Ac(a2-3)Gal(b1-3)GalNAc(b1-4)[Neu5Ac(a2-8)Neu5Ac(a2-3)]Gal(b1-4)Glc
Summary of the method: as §1

[22] = target: Neu5Ac(a2-8)Neu5Ac(a2-3)Gal(b1-4)Glc
Summary of the method: as §1

[23] = target: Neu5Ac(a2-8)Neu5Ac(a2-3)[Gal(b1-3)GalNAc(b1-4)]Gal(b1-4)Glc
Summary of the method: as §1

[24] = target: Neu5Ac(a2-8)Neu5Ac(a2-3)[GalNAc(b1-4)]Gal(b1-4)Glc
Summary of the method: as §1

[25] = target: Neu5Ac(a2-8)Neu5Ac(a2-8)Neu5Ac
Summary of the method: as §1

[26] = target: Neu5Ac(a2-8)Neu5Ac(a2-8)Neu5Ac(a2-3)Gal(b1-4)Glc
Summary of the method: as §1

[27] = target: Neu5Ac(a2-8)Neu5Ac(a2-8)Neu5Ac(a2-3)[GalNAc(b1-4)]Gal(b1-4)Glc
Summary of the method: as §1

[28] = target: Neu5Ac(a2-8)Neu5Ac(a2-8)Neu5Ac(a2-8)Neu5Ac(a2-3)[GalNAc(b1-4)]Gal(b1-4)Glc
Summary of the method: as §1

[29] = target: Neu5Ac(b2-6)Gal(b1-4)GlcNAc
Summary of the method: as §1

Neu5Ac(b2-6)GalNAc = target: Neu5Ac(b2-6)GalNAc
Summary of the method: as §1

[30] = target: Neu5Ac9Ac(a2-3)Gal(b1-3)GlcNAc
Summary of the method: as §1

[31] = target: Neu5Ac9Ac(a2-3)Gal(b1-4)GlcNAc
Summary of the method: as §1

[32] = target: Neu5Ac9Ac(a2-6)Gal(b1-4)GlcNAc
Summary of the method: as §1

[33] = target: Neu5Gc(a2-3)Gal(b1-3)GlcNAc
Summary of the method: as §1

[34] = target: Neu5Gc(a2-3)Gal(b1-3)[Fuc(a1-4)]GlcNAc
Summary of the method: as §1

Neu5Gc(a2-3)Gal(b1-4)Glc = target: Neu5Gc(a2-3)Gal(b1-4)Glc
Summary of the method: as §1

[35] = target: Neu5Gc(a2-3)Gal(b1-4)GlcNAc
Summary of the method: as §1

[36] = target: Neu5Gc(a2-3)Gal(b1-4)[Fuc(a1-3)]GlcNAc
Summary of the method: as §1

[37] = target: Neu5Gc(a2-6)Gal(b1-4)GlcNAc
Summary of the method: as §1

Neu5Gc(a2-6)GalNAc = target: Neu5Gc(a2-6)GalNAc
Summary of the method: as §1

[38] = target: Neu5Gc(b2-6)Gal(b1-4)GlcNAc
Summary of the method: as §1

B1: Latrophilin-3 (Homo sapiens), Q9HAR2 (protein)
chain: MWPSQLLIFMMLLAPIIHAFSRAPIPMAVVRRELSCESYPIELRCPGTDVIMIESANYGRTDDKICDSDPAQMENIRCYLPDAYKIMSQRCNNRTQCAVVAGPDVFPDPCPGTYKYLEVQYECVPYKVEQKVFLCPGLLKGVYQSEHLFESDHQSGAWCKDPLQASDKIYYMPWTPYRTDTLTEYSSKDDFIAGRPTTTYKLPHRVDGTGFVVYDGALFFNKERTRNIVKFDLRTRIKSGEAIIANANYHDTSPYRWGGKSDIDLAVDENGLWVIYATEQNNGKIVISQLNPYTLRIEGTWDTAYDKRSASNAFMICGILYVVKSVYEDDDNEATGNKIDYIYNTDQSKDSLVDVPFPNSYQYIAAVDYNPRDNLLYVWNNYHVVKYSLDFGPLDSRSGQAHHGQVSYISPPIHLDSELERPSVKDISTTGPLGMGSTTTSTTLRTTTLSPGRSTTPSVSGRRNRSTSTPSPAVEVLDDMTTHLPSASSQIPALEESCEAVEAREIMWFKTRQGQIAKQPCPAGTIGVSTYLCLAPDGIWDPQGPDLSNCSSPWVNHITQKLKSGETAANIARELAEQTRNHLNAGDITYSVRAMDQLVGLLDVQLRNLTPGGKDSAARSLNKAMVETVNNLLQPQALNAWRDLTTSDQLRAATMLLHTVEESAFVLADNLLKTDIVRENTDNIKLEVARLSTEGNLEDLKFPENMGHGSTIQLSANTLKQNGRNGEIRVAFVLYNNLGPYLSTENASMKLGTEALSTNHSVIVNSPVITAAINKEFSNKVYLADPVVFTVKHIKQSEENFNPNCSFWSYSKRTMTGYWSTQGCRLLTTNKTHTTCSCNHLTNFAVLMAHVEVKHSDAVHDLLLDVITWVGILLSLVCLLICIFTFCFFRGLQSDRNTIHKNLCISLFVAELLFLIGINRTDQPIACAVFAALLHFFFLAAFTWMFLEGVQLYIMLVEVFESEHSRRKYFYLVGYGMPALIVAVSAAVDYRSYGTDKVCWLRLDTYFIWSFIGPATLIIMLNVIFLGIALYKMFHHTAILKPESGCLDNIKSWVIGAIALLCLLGLTWAFGLMYINESTVIMAYLFTIFNSLQGMFIFIFHCVLQKKVRKEYGKCLRTHCCSGKSTESSIGSGKTSGSRTPGRYSTGSQSRIRRMWNDTVRKQSESSFITGDINSSASLNREGLLNNARDTSVMDTLPLNGNHGNSYSIASGEYLSNCVQIIDRGYNHNETALEKKILKELTSNYIPSYLNNHERSSEQNRNLMNKLVNNLGSGREDDAIVLDDATSFNHEESLGLELIHEESDAPLLPPRVYSTENHQPHHYTRRRIPQDHSESFFPLLTNEHTEDLQSPHRDSLYTSMPTLAGVAATESVTTSTQTEPPPAKCGDAEDVYYKSMPNLGSRNHVHQLHTYYQLGRGSSDGFIVPPNKDGTPPEGSSKGPAHLVTSL
[1]
  glycan array binding signal (z-score): 1.52
[2]
  glycan array binding signal (z-score): -0.161
[3]
  glycan array binding signal (z-score): -0.459
[4]
  glycan array binding signal (z-score): 0.421
[5]
  glycan array binding signal (z-score): -0.625
[6]
  glycan array binding signal (z-score): -0.033
[7]
  glycan array binding signal (z-score): -0.818
[8]
  glycan array binding signal (z-score): 0.013
[9]
  glycan array binding signal (z-score): -0.412
[10]
  glycan array binding signal (z-score): -1.29
[11]
  glycan array binding signal (z-score): 2.21
[12]
  glycan array binding signal (z-score): -0.672
[13]
  glycan array binding signal (z-score): 0.177
[14]
  glycan array binding signal (z-score): -0.06
[15]
  glycan array binding signal (z-score): 0.853
[16]
  glycan array binding signal (z-score): -0.062
Neu5Ac(a2-6)GalNAc
  glycan array binding signal (z-score): -0.233
[17]
  glycan array binding signal (z-score): 0.53
[18]
  glycan array binding signal (z-score): -0.44
[19]
  glycan array binding signal (z-score): -0.089
[20]
  glycan array binding signal (z-score): -0.108
Neu5Ac(a2-8)Neu5Ac
  glycan array binding signal (z-score): -0.096
[21]
  glycan array binding signal (z-score): -0.313
[22]
  glycan array binding signal (z-score): -0.343
[23]
  glycan array binding signal (z-score): -0.672
[24]
  glycan array binding signal (z-score): -0.198
[25]
  glycan array binding signal (z-score): -1.22
[26]
  glycan array binding signal (z-score): -0.841
[27]
  glycan array binding signal (z-score): -1.01
[28]
  glycan array binding signal (z-score): -1.76
[29]
  glycan array binding signal (z-score): 0.351
Neu5Ac(b2-6)GalNAc
  glycan array binding signal (z-score): 1.22
[30]
  glycan array binding signal (z-score): -0.552
[31]
  glycan array binding signal (z-score): 0.731
[32]
  glycan array binding signal (z-score): -0.383
[33]
  glycan array binding signal (z-score): -1.71
[34]
  glycan array binding signal (z-score): -0.381
Neu5Gc(a2-3)Gal(b1-4)Glc
  glycan array binding signal (z-score): 0.387
[35]
  glycan array binding signal (z-score): 0.533
[36]
  glycan array binding signal (z-score): 0.754
[37]
  glycan array binding signal (z-score): 0.125
Neu5Gc(a2-6)GalNAc
  glycan array binding signal (z-score): 1.3
[38]
  glycan array binding signal (z-score): 0.723
